Data from paper PMC7862700.
The entries are a selection whose mix differs from that of the whole data set. At the low end of the ranking, values are background and their order means little.

What follows are sequences tested against T1, ELK3 (UniProt P41970) (assay: DAPPL (digital affinity profiling via proximity ligation, sequencing)). Conditions: 10 mM Tris-HCl pH 7.5, 50 mM NaCl, 1 mM DTT, 4% glycerol, room temperature, 30 min; GST-TFs on glutathione beads, 16-mer random dsDNA library, 0.1% …; high values mean tight binding; double strand, one strand shown; scale: fold enrichment (6-mer frequency, TF over GST control).
T1 sequence: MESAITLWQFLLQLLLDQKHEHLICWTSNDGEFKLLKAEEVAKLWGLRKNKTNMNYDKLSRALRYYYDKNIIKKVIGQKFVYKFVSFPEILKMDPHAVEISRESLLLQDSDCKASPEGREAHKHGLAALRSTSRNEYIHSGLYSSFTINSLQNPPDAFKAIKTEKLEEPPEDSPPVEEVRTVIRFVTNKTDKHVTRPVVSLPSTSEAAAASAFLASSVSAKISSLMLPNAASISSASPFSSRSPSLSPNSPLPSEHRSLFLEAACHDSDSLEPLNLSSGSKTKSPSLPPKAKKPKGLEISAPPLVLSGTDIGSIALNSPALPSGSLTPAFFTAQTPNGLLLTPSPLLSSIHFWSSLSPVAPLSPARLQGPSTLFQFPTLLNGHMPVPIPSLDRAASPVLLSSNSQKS

Sequence	binding signal
CCGAGC	0.986
CCTTGT	1.18
AATACG	1.26
TGGGAT	1.17
AGTACA	1.31
GCCCTG	0.911
CCACCC	1.23
GCCGAT	1.08
TGTTTC	1.61
CGCGCG	1.04

Each sequence was assayed against T2, ETS2 (UniProt P15036) in the same assay as above. Conditions: 10 mM Tris-HCl pH 7.5, 50 mM NaCl, 1 mM DTT, 4% glycerol, room temperature, 30 min; GST-TFs on glutathione beads, 16-mer random dsDNA library, 0.1% …; high values mean tight binding; double strand, one strand shown; scale: fold enrichment (6-mer frequency, TF over GST control).
T2 sequence: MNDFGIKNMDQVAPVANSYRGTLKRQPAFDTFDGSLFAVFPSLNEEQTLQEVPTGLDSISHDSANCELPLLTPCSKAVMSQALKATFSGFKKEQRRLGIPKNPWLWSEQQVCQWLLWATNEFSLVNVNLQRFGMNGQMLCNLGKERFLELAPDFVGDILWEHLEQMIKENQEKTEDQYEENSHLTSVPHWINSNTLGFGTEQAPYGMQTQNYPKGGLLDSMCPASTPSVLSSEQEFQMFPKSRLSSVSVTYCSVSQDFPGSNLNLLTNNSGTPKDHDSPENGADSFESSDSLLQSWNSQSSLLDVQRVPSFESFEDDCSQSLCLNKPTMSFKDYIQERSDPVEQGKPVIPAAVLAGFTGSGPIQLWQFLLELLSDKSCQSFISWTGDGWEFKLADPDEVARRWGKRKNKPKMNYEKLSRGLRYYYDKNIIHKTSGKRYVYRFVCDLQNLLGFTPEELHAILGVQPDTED

Sequence	binding signal
CCGAGC	1.17
CCTTGT	1.26
AATACG	1.28
TGGGAT	1.17
AGTACA	1.16
GCCCTG	0.971
CCACCC	1.18
GCCGAT	0.897
TGTTTC	1.79
CGCGCG	0.962

The sequences below were run against T3, ETV3 (UniProt P41162-2) in the same assay as above. Conditions: 10 mM Tris-HCl pH 7.5, 50 mM NaCl, 1 mM DTT, 4% glycerol, room temperature, 30 min; GST-TFs on glutathione beads, 16-mer random dsDNA library, 0.1% …; high values mean tight binding; double strand, one strand shown; scale: fold enrichment (6-mer frequency, TF over GST control).
T3 sequence: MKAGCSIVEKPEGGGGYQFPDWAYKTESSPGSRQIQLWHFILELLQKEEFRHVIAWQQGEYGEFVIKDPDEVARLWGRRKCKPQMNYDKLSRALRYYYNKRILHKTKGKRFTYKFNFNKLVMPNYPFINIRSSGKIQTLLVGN

Sequence	binding signal
GCAAAT	0.984
CTGCAT	1.24
CTTCGA	1.16
ATGCGA	1.32
ATGTTA	1.23
TGCTGG	1.11
TCTTTT	1.5
TGCCTT	1.31
ATAACA	1.2
AATCTC	1.2
TATTTA	1.41
CTTGGC	1.12
AGCCAC	0.943
TTCTAG	1.19
TGGGCT	1.41
CTATTG	1.42
CTCACG	1.23
ATTTTC	1.42
AATCCT	1.37
CTCTCC	1.45
TGATTA	1.08
TTCAAC	1.32
AAATCT	1.19
CACACG	1.1
TAGGGT	0.955
TGTACA	1.17
TCAACT	1.31
ATCCTT	1.84
GTGCAT	1

In a second layout: entries from further up.

| Sequence | binding signal |
| --- | --- |
| CTGCAT | 1.24 |
| ATAACA | 1.2 |
| TGGGCT | 1.41 |
| TAGGGT | 0.955 |
